Where “and” joins values, the source holds several entries; their conditions need not be identical. Equal entries are not always repeated.
Tested on: MES-induced seizures
Format: in vivo
Conditions: mouse brain EC50 relative to rat

## NC(=O)O[C@@H](Cn1ncnn1)c1ccccc1Cl [CNB, cenobamate]
  Mouse/rat fold of brain EC50: 2 fold and 2.33 fold

— article PMC12346480, “The Pharmacokinetic and Pharmacodynamic Relationship of Clinically Used Antiseizure Medications in the Maximal Electroshock Seizure Model in Rodents” (International Journal of Molecular Sciences, 2025)
